Experimental data reported in the supplement of paper PMC10849652.
This is one part of the list.

Amino acid sequences for entries named in this document (tags omitted). A change or cut given only in a name is not applied to a line headed by its entry.
UniProt Q9H6Q4: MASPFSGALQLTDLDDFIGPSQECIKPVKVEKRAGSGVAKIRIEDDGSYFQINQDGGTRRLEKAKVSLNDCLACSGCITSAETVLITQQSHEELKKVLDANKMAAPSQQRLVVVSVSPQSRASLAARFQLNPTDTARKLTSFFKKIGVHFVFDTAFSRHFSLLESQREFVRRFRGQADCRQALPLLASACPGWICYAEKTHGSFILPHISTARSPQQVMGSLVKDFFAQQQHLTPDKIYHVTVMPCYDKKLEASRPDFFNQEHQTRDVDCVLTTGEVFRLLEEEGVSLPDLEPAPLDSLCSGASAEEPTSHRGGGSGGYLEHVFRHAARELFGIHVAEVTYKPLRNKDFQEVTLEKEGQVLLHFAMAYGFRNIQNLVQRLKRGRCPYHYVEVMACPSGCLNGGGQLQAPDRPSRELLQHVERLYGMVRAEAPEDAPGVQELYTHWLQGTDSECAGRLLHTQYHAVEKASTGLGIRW
UniProt Q9UBY8, whole entry, looked up: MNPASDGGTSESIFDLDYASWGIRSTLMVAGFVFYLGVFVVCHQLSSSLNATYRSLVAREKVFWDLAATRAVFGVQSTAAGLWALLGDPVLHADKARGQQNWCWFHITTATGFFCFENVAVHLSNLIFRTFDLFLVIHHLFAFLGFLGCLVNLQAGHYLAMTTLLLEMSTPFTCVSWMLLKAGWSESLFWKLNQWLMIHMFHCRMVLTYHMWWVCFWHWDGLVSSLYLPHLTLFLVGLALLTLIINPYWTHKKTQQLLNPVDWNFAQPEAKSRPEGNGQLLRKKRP
UniProt Q00610: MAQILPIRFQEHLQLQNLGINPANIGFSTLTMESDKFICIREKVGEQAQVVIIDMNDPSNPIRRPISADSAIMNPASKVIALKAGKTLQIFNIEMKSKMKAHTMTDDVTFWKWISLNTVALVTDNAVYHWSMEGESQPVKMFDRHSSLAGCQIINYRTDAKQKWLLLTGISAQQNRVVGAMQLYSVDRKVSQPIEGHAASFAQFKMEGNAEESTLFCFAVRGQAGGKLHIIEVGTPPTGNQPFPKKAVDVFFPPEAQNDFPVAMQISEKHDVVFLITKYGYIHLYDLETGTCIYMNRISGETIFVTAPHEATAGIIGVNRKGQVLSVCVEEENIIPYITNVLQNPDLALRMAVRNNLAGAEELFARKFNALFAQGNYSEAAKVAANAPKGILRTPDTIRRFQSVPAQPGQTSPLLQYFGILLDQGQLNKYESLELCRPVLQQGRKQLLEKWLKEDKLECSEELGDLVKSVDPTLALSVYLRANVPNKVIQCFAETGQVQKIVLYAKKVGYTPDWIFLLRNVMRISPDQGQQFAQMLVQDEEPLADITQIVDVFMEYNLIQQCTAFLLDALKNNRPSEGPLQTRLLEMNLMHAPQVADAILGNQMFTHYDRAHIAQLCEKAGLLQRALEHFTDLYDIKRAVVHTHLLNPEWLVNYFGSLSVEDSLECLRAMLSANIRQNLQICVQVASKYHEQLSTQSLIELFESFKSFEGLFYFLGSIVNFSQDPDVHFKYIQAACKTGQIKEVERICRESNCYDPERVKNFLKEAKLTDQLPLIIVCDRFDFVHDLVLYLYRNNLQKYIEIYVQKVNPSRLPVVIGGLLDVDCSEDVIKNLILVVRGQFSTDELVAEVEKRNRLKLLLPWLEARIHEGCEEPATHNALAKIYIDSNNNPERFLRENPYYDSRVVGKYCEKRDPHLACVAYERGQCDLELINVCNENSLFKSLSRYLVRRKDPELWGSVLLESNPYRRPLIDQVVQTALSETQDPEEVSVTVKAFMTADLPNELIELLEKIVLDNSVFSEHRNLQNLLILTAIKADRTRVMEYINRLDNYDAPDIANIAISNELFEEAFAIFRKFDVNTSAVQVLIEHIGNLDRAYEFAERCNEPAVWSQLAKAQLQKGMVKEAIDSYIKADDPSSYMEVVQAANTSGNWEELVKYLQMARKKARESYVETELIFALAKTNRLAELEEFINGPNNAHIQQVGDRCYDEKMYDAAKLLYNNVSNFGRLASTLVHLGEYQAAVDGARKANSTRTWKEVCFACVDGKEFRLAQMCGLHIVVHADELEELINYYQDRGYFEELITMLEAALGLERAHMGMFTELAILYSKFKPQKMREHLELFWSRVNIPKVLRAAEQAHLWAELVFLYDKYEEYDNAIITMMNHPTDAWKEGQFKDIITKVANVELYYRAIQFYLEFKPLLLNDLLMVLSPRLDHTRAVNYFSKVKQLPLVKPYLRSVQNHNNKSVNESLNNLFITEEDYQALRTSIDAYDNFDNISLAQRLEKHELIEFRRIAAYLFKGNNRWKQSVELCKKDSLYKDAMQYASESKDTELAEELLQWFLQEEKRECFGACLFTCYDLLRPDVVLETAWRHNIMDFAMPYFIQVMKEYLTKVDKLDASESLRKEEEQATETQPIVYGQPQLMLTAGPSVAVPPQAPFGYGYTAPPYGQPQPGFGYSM
UniProt Q9BUK0: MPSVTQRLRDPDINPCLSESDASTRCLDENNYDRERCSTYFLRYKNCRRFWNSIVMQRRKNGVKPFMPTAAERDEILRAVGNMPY
UniProt Q9ULV3: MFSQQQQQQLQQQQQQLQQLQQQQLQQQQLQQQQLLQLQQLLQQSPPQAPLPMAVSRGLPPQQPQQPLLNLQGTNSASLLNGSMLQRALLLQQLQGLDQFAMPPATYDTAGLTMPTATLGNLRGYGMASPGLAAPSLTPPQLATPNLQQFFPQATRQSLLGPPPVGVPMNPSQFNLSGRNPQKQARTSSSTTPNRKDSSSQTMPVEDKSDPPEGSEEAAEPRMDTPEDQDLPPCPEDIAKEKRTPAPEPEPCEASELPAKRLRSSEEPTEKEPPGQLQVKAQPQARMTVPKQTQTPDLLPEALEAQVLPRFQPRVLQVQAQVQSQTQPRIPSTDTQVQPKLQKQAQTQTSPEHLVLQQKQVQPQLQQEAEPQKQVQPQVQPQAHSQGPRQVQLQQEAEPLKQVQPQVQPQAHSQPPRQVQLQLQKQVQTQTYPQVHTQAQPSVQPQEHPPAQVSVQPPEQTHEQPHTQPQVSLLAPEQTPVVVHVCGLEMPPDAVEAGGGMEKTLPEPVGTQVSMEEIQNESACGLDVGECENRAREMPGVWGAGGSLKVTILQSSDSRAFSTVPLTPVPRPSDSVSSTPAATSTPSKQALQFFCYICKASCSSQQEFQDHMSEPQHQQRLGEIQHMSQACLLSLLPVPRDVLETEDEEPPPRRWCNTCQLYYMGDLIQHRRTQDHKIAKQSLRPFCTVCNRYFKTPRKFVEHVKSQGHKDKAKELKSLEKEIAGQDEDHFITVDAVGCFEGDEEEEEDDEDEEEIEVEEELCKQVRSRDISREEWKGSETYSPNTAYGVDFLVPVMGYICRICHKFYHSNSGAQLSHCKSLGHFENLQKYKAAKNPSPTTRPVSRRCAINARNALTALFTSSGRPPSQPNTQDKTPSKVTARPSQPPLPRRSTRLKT
UniProt O76071: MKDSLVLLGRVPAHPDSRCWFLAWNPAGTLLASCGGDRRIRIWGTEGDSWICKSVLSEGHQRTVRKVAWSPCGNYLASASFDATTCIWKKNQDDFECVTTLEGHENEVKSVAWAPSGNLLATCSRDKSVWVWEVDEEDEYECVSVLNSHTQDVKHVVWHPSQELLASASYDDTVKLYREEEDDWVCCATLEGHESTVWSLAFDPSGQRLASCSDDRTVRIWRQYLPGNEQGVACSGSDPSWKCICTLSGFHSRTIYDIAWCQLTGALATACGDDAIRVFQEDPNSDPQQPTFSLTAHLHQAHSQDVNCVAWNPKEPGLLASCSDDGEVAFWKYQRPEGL
UniProt Q8WYQ3: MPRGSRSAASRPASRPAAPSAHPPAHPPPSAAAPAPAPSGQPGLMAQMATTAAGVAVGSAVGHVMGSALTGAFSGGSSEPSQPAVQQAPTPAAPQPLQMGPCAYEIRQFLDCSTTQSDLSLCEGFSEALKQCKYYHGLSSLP
UniProt P56277: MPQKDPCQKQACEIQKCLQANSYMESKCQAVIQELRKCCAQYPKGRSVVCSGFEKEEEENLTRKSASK
UniProt P49759: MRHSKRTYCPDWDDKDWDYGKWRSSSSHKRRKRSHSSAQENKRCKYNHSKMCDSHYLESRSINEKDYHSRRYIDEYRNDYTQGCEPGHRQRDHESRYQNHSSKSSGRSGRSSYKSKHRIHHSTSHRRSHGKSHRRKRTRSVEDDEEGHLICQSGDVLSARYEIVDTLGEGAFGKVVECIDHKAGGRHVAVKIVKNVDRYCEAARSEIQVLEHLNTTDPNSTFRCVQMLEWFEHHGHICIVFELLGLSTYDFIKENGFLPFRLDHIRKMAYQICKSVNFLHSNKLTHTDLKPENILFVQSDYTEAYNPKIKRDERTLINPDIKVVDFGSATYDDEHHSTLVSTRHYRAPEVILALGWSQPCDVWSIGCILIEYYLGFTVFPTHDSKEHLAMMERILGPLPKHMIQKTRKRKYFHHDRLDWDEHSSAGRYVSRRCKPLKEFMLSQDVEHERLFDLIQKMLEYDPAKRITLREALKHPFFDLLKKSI
UniProt Q9NWW5: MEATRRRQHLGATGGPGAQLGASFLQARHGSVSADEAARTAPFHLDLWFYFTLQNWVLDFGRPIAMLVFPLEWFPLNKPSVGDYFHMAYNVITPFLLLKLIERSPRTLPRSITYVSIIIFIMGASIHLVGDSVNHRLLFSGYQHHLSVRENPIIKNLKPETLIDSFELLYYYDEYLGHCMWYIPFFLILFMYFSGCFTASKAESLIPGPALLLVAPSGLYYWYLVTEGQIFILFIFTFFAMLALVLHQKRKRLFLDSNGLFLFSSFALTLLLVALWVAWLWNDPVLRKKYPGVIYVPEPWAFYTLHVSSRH
UniProt Q9Y240: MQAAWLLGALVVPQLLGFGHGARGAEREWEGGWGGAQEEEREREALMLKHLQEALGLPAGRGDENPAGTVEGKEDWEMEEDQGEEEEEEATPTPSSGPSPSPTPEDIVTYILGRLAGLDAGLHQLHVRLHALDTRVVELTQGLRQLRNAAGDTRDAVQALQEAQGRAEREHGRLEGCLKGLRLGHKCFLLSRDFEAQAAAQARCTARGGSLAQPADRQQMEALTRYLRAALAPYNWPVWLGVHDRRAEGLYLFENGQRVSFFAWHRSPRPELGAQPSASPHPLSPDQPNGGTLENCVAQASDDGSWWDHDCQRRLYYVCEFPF
UniProt Q5VXU3: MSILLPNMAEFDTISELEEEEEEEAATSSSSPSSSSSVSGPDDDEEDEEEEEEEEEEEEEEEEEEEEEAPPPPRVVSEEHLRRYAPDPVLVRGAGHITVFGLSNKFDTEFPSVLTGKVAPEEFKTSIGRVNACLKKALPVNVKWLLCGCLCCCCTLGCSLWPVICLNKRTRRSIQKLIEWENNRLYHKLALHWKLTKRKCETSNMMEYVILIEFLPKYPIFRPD
UniProt P09496: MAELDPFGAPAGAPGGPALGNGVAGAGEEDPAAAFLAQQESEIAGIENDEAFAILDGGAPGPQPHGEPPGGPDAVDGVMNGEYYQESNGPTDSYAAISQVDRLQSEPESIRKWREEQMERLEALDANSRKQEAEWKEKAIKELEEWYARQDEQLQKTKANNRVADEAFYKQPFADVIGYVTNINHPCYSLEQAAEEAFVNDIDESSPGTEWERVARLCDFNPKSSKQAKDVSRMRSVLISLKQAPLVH
UniProt Q8IZ52: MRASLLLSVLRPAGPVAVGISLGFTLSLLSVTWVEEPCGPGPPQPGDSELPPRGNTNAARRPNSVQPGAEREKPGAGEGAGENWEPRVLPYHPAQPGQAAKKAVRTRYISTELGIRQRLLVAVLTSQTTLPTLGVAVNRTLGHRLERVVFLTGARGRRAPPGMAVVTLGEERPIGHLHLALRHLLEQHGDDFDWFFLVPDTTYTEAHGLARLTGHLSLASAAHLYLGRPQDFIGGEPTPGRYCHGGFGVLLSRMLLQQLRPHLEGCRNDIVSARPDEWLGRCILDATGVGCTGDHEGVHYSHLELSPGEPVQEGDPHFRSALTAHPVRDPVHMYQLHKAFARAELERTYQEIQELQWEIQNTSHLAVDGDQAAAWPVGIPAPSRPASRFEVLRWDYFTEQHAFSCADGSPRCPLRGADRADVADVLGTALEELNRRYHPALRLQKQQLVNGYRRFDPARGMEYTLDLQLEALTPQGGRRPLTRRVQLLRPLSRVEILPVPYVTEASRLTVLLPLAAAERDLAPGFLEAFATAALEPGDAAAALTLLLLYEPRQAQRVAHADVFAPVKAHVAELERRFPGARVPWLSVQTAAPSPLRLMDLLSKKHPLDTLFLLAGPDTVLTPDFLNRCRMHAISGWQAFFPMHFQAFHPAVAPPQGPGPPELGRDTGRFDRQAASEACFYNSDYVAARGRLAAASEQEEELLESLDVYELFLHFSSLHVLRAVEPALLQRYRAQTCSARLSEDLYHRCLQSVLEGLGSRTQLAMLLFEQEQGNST

How the values were obtained:
Assay in all cases: log2 fold change, soluble protein after heating vs DMSO (PISA); higher = thermal stabilisation; K562 lysate, 10 uM; active = over 0.2 and 3.5 SD of the protein, either way, in both replicates (recomputed)
lapatinib = compound: CS(=O)(=O)CCNCc1ccc(-c2ccc3ncnc(Nc4ccc(OCc5cccc(F)c5)c(Cl)c4)c3c2)o1 [lapatinib]
Outline: (§1)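 Log-two fold change in thermal stability relative to solvent controls is reported from duplicates. For each sample, crude K562 extract from dounce-homogenised pellets in PBS pH 7.4 with 1 mM MgCl2, at 1 mg/mL protein, was treated with 10 μM compound for 30 min. Aliquots heated for 3 min across 48°C-58°C were pooled, brought to 0.5% NP-40 at 4°C and cleared at 21,000xg for 90 min. The supernatant was quantified by TMTpro 16plex LC-MS/MS with channel sums equalised.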

pictilisib = compound: CS(=O)(=O)N1CCN(Cc2cc3nc(-c4cccc5[nH]ncc45)nc(N4CCOCC4)c3s2)CC1 [pictilisib]
Outline: as §1

crizotinib = compound: C[C@@H](Oc1cc(-c2cnn(C3CCNCC3)c2)cnc1N)c1c(Cl)ccc(F)c1Cl [crizotinib]
Outline: as §1

[1] = compound: C[C@H](C1=CC=C(C=C1)C(=O)NC2=C3C=CNC3=NC=C2)N
Outline: as §1

duvelisib = compound: C[C@H](Nc1ncnc2nc[nH]c12)c1cc2cccc(Cl)c2c(=O)n1-c1ccccc1 [duvelisib]
Outline: as §1

gandotinib = compound: Cc1cc(Nc2cc(CN3CCOCC3)c3nc(C)c(Cc4ccc(Cl)cc4F)n3n2)n[nH]1 [gandotinib]
Outline: as §1

tozasertib = compound: Cc1cc(Nc2cc(N3CCN(C)CC3)nc(Sc3ccc(NC(=O)C4CC4)cc3)n2)n[nH]1 [tozasertib]
Outline: as §1

doramapimod = compound: Cc1ccc(-n2nc(C(C)(C)C)cc2NC(=O)Nc2ccc(OCCN3CCOCC3)c3ccccc23)cc1 [doramapimod]
Outline: as §1

bafetinib = compound: Cc1ccc(NC(=O)c2ccc(CN3CC[C@H](N(C)C)C3)c(C(F)(F)F)c2)cc1Nc1nccc(-c2cncnc2)n1 [bafetinib]
Outline: as §1

[2] = compound: Cc1cccc(CC(=O)N2CCc3c2ccc(-c2cn(C)c4ncnc(N)c24)c3F)n1
Outline: as §1

Measured: log2 fold change

CIAO3 (UniProt Q9H6Q4)
inactive: lapatinib 0.035 | pictilisib 0.002 | crizotinib -0.033 | [1] -0.08 | duvelisib -0.016 | gandotinib 0.049 | tozasertib 0.007 | doramapimod -0.01 | bafetinib 0.049 | [2] 0.001

CLN8 (UniProt Q9UBY8)
inactive: lapatinib 0.046 | crizotinib 0.004 | [1] -0.071 | duvelisib 0.038 | gandotinib 0.069 | tozasertib -0.241 | doramapimod -0.023 | bafetinib 0.027 | [2] 0.077

CHST2 (UniProt Q9Y4C5)
inactive: lapatinib 0.054 | pictilisib -0.114 | crizotinib -0.118 | [1] -0.106 | duvelisib -0.106 | gandotinib 0.098 | doramapimod 0.13 | bafetinib 0.079 | [2] 0.371

CLTC (UniProt Q00610)
inactive: lapatinib -0.021 | crizotinib -0.052 | [1] 0.053 | duvelisib -0.013 | gandotinib -0.083 | tozasertib -0.015 | doramapimod 0.044 | bafetinib -0.026 | [2] 0.026

CLIP1 isoform 2 (UniProt P30622)
inactive: lapatinib 0.066 | crizotinib 0.018 | [1] -0.103 | duvelisib -0.053 | gandotinib 0.135 | tozasertib 0.047 | doramapimod 0 | bafetinib 0.031 | [2] 0

CHCHD7 isoform 4 (UniProt Q9BUK0)
active: [1] -0.382
inactive: lapatinib 0.079 | pictilisib 0.06 | crizotinib -0.052 | duvelisib -0.01 | gandotinib 0.266 | tozasertib -0.077 | doramapimod 0.026 | bafetinib -0.001 | [2] 0.187

CHMP4A (UniProt H0YIN6)
inactive: lapatinib -0.078 | pictilisib -0.071 | crizotinib -0.211 | [1] -0.091 | duvelisib 0 | gandotinib 0.451 | doramapimod -0.059 | bafetinib -0.098 | [2] 0.325

CIZ1 (UniProt Q9ULV3)
inactive: lapatinib -0.027 | pictilisib -0.036 | crizotinib 0.03 | [1] -0.009 | duvelisib 0.01 | gandotinib 0.063 | tozasertib 0.044 | doramapimod -0.04 | bafetinib 0.008 | [2] 0.066

CIAO1 (UniProt O76071)
inactive: lapatinib 0.01 | pictilisib -0.062 | crizotinib -0.05 | [1] 0.003 | duvelisib 0.023 | gandotinib 0.024 | tozasertib 0.048 | doramapimod 0.086 | bafetinib -0.044 | [2] -0.019

CLINT1 isoform 3 (UniProt Q14677)
inactive: lapatinib 0.042 | crizotinib 0.142 | [1] -0.022 | duvelisib -0.044 | gandotinib 0.187 | tozasertib -0.016 | doramapimod 0.167 | bafetinib 0.02 | [2] -0.063

CLUH, A0A494C0R8
inactive: lapatinib -0.052 | crizotinib -0.019 | duvelisib 0.154 | gandotinib -0.108 | tozasertib -0.025 | doramapimod -0.026 | bafetinib -0.091 | [2] -0.14
active: [1] 0.557

CLIP1 isoform 1 (UniProt P30622)
inactive: lapatinib 0.006 | crizotinib 0.023 | [1] -0.023 | duvelisib 0.004 | gandotinib 0.036 | tozasertib 0.001 | doramapimod 0.011 | bafetinib -0.003 | [2] -0.01

CHCHD10 (UniProt Q8WYQ3)
inactive: lapatinib 0.032 | pictilisib -0.106 | [1] 0.133 | duvelisib 0.054 | gandotinib -0.131 | tozasertib 0.053 | bafetinib 0.162 | [2] -0.068

CMC4 (UniProt P56277)
inactive: lapatinib 0.006 | crizotinib 0.003 | doramapimod -0.237

CLK1 isoform 3 (UniProt P49759)
inactive: lapatinib -0.102 | [1] -0.13 | gandotinib 0.208 | tozasertib 0.079 | bafetinib -0.103 | [2] 0.231

CLSTN3 isoform 2 (UniProt Q9BQT9)
inactive: lapatinib -0.009 | crizotinib 0.184 | duvelisib 0.023 | doramapimod 0.065

CLUL1 (UniProt Q15846)
inactive: lapatinib -0.152 | [1] -0.188 | gandotinib 0.04 | bafetinib -0.304 | [2] 0.143

CLUAP1 (UniProt I3L2E1)
inactive: lapatinib -0.087 | crizotinib -0.554 | tozasertib -0.115 | doramapimod 0.079 | bafetinib -0.025

CHST14 (UniProt Q8NCH0)
inactive: crizotinib -0.034 | [1] -0.031 | duvelisib 0.005 | gandotinib 0.006 | doramapimod 0.113 | [2] 0.035

CLN6 (UniProt Q9NWW5)
inactive: crizotinib 0.015 | duvelisib -0.106 | tozasertib 0.023 | doramapimod -0.057 | bafetinib 0.013

CHD6 (UniProt Q8TD26)
inactive: pictilisib -0.229 | crizotinib -0.016 | [1] 0.018 | duvelisib 0.096 | gandotinib -0.04 | tozasertib 0.072 | doramapimod -0.002 | bafetinib 0.132 | [2] -0.078

CHD4, A0A2R8Y521
inactive: lapatinib 0.025 | duvelisib 0.006 | tozasertib 0.081

CKAP2L (UniProt Q8IYA6)
inactive: crizotinib 0.03 | [1] -0.056 | duvelisib -0.327 | gandotinib 0.056 | tozasertib 0.137 | doramapimod -0.057 | [2] -0.029

CLEC11A (UniProt Q9Y240)
inactive: lapatinib 0 | crizotinib 0.14 | tozasertib 0.096 | doramapimod 0.032

CHIC1 (UniProt Q5VXU3)
inactive: [1] 0.192 | gandotinib -0.107 | [2] -0.123

CLU isoform 2 (UniProt P10909)
inactive: [1] 0.049 | gandotinib -0.087 | [2] 0.315

CLEC16A isoform 2 (UniProt Q2KHT3)
inactive: lapatinib -0.035 | crizotinib 0.039 | duvelisib 0.05 | doramapimod 0.034 | bafetinib 0.095

CHPF2 (UniProt Q9P2E5)
inactive: crizotinib 0.007 | duvelisib 0.067 | tozasertib 0.185 | doramapimod 0.015

CLINT1 (UniProt Q14677)
inactive: crizotinib 0.019 | [1] 0.004 | duvelisib -0.019 | gandotinib 0.187 | tozasertib -0.037 | doramapimod 0.226 | bafetinib -0.055 | [2] 0.077

CLTA isoform 2 (UniProt P09496)
inactive: lapatinib -0.054 | crizotinib 0.128 | duvelisib -0.109 | tozasertib 0.13 | doramapimod 0.041 | bafetinib -0.114

CHPF (UniProt Q8IZ52)
inactive: pictilisib -0.048 | crizotinib -0.082 | [1] -0.079 | duvelisib -0.074 | gandotinib -0.007 | tozasertib 0.069 | doramapimod 0.082 | bafetinib 0.071 | [2] 0.174

CHST11 (UniProt Q9NPF2)
inactive: pictilisib -0.058 | crizotinib 0.01 | [1] -0.037 | duvelisib -0.026 | gandotinib 0.046 | tozasertib -0.009 | doramapimod -0.006 | bafetinib -0.05 | [2] 0.062

CLK2 (UniProt P49760)
inactive: lapatinib 0.004 | crizotinib -0.037 | duvelisib -0.11 | doramapimod 0.011
